# The other results are listed elsewhere or left out. Further columns of the screen follow, without active or inactive calls. The list favours compounds with an active or inconclusive main result. The note in brackets gives the kind of curve behind each potency; many fits are weak.
# Assay: qHTS Assay for Lipid Storage Modulators in Drosophila S3 Cells;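 for cell number change: cells counted by Cell Tracker Red CMTPX staining in the red channel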
# Conditions: BODIPY lipid droplet fluorescence, 18-24 h; for cell number change: measured here: cell count max response, cells fed with added oleic acid
# Method in brief: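 Drosophila S3 cells got compounds at several concentrations plus oleic acid (400 uM solution). Laser-scanning cytometry with 488 nm excitation read lipid droplets at 500-530 nm and cells at 575-640 nm. Percent activity was relative to 20 uM Triacsin C.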
# [1] = measured here: cell number channel AC50, cells fed with added oleic acid
# [2] = measured here: lipid fluorescence (Fed channel) AC50, cells fed with added oleic acid
Structure (SMILES),cell number change [%],AC50 [1],AC50 [2]
COc1ccc(C(NC(=O)CN2C(=O)NC3(CCc4ccccc43)C2=O)c2ccccc2)cc1 (configuration not stated),37.9,"20.6 µM [rising, single point]","2.59 µM [falling, partial curve]"
Cc1ccc(-n2nc3ccc(NC(=S)NC(=O)/C=C/c4ccco4)cc3n2)cc1,4.98,–,"3.66 µM [rising, single point]"
Cc1cc2c(c(=O)n1CC1CCCO1)C(c1ccco1)C(C#N)=C(N)O2 (configuration not stated),1.79,–,"0.517 µM [falling, full curve]"
COc1ccc(Nc2nc(Cl)nc(N3CCN(c4ccc(OC)cc4)CC3)n2)cc1,-27.1,–,"29.1 µM [falling, single point]"
CCOc1ccc(N(CC(=O)Nc2ccc(OC)cc2)C2=NC3CS(=O)(=O)CC3S2)cc1 (configuration not stated),8.93,–,"1.46 µM [rising, partial curve]"
Cc1nn(C)c(NC(=O)c2ccc(Cl)cc2)c1Cl,-15.3,–,"0.58 µM [rising, single point]"
CCOc1ccc2[nH]c(C(=O)N/N=C/c3ccccc3OC)cc2c1,-31,"29.1 µM [falling, single point]","29.1 µM [falling, single point]"
CCOc1cc(NC(=S)Nc2ccccc2OC)c(OCC)cc1NC(=O)c1ccccc1C,-30.2,"29.1 µM [falling, partial curve]","18.4 µM [falling, single point]"
Cc1cc(=O)[nH]c(SCC(=O)NCC2CCCO2)n1 (configuration not stated),-44.1,"29.1 µM [falling, single point]","20.6 µM [falling, single point]"
COC(=O)c1ccccc1NC(=O)CN(Cc1ccc(Cl)cc1)S(C)(=O)=O,-8.07,–,"6.51 µM [rising, full curve]"
CCOc1ccc(OCC)c(S(=O)(=O)n2cc(C)nc2CC)c1,-12.1,–,"32.6 µM [falling, single point]"
COc1ccc(S(=O)(=O)N2CCCCCC2)cc1C(=O)N(C)CC(=O)Nc1ccccc1Cl,–,–,"2.91 µM [rising, single point]"
CCCCn1c(SCC(=O)NC2CCCC2)nc2ccccc2c1=O,100,"5.17 µM [rising, full curve]","18.4 µM [rising, partial curve]"
CC(=O)Nc1sc2c(c1C#N)CCC2,8.61,–,–
COCCn1c(SCC(=O)Nc2cc(C)on2)nc2c(c1=O)SCC2,4.69,–,–
O=C(CN1CC(=O)Oc2ccccc21)NCc1ccco1,11.6,–,"6.51 µM [falling, single point]"
Cc1cc(Cl)ccc1OCC(=O)N1CC(C)CC(C)C1 (configuration not stated),5.14,–,"0.00461 µM [rising, full curve, poor fit]"
CC(=O)c1ccccc1OCCn1nnc(-c2ccc(C)cc2)n1,-37.7,"23.1 µM [falling, single point]","29.1 µM [falling, single point]"
N=c1c(C(=O)NCC2CCCO2)cc2c(=O)n3ccccc3nc2n1Cc1ccc(F)cc1 (configuration not stated),23.3,–,–
CCNC(=S)NCc1ccco1,-7.78,–,–

# Of the compounds above, 2 contain a cyano group:
Structure (SMILES),cell number change [%],AC50 [1],AC50 [2]
Cc1cc2c(c(=O)n1CC1CCCO1)C(c1ccco1)C(C#N)=C(N)O2 (configuration not stated),1.79,–,"0.517 µM [falling, full curve]"
CC(=O)Nc1sc2c(c1C#N)CCC2,8.61,–,–

# (further entries)

Structure (SMILES),cell number change [%],AC50 [1],AC50 [2]
COc1ccc(C(c2nnnn2CC2CCCO2)N2CCN(c3cccc(C)c3C)CC2)cc1 (configuration not stated),-25.7,–,"11.6 µM [rising, partial curve]"
CCC(O)(CC)C(=O)N(Nc1ccc(C)cc1)c1ccc(C)cc1,12.6,–,–
Cc1nn(Cc2ccccc2Cl)c(C)c1C(=O)Nc1nnc(C2CC2)s1,97.9,–,"23.1 µM [rising, partial curve, poor fit]"
CN(C)c1[nH]c(=O)c(C#N)c2c1CCN2Cc1ccccc1,-8,–,"29.1 µM [rising, single point]"
Cc1ccc2[nH]c(=O)c(CN(C(=O)c3cccc([N+](=O)[O-])c3)C(C)C)cc2c1,24.1,–,"11.6 µM [rising, single point]"
CCCCC(CC)CNC(=O)C(=O)c1ccccc1NC(C)=O (configuration not stated),34.3,"4.11 µM [rising, partial curve]",–
CCN1CCc2c(OCC(=O)N3CCCc4ccccc43)cccc2C1=O,-25.2,"0.82 µM [falling, single point]",–
COc1ccccc1C1=NOC(C)(c2nnc(Cc3ccccc3)o2)C1 (configuration not stated),3.88,–,"23.1 µM [rising, single point]"
COc1cc(OC)c(-n2cc(-c3ccc(OC)c(OC)c3)[nH]c2=S)cc1Cl,12.6,–,"0.326 µM [falling, full curve, poor fit]"
COc1ccc2occ(C(C)=O)c2c1,0.921,"1.64 µM [rising, partial curve]","20.6 µM [rising, single point]"
O=C(Nc1ccc(S(=O)(=O)N2CCc3ccccc32)cc1)c1ccco1,-8.46,–,–
Cc1ccc(N(Cc2ccccc2)C(=O)Cc2ccc(S(=O)(=O)N3CCOCC3)s2)cc1,-8.43,–,–
CCOC(=O)c1cc(-c2ccc(Cl)s2)nc2c1c(C)nn2C,–,"1.64 µM [rising, partial curve]",–
CCOC(=O)C1CCN(S(=O)(=O)c2ccc(OCC(=O)OC)cc2)CC1,-1.72,–,"0.146 µM [falling, full curve, poor fit]"
O=C(CCN1C(=O)c2ccncc2C1=O)NCc1ccc(Cl)cc1,24.4,–,"23.1 µM [rising, single point]"
COc1ccccc1NS(=O)(=O)c1cc(NC(=O)CCNC(C)=O)ccc1N1CCCCC1,-16.5,–,–
O=C(c1oc2ccccc2c1N1CCCCC1)N1CCCCC1,-10.8,–,"6.51 µM [rising, partial curve]"
COc1cccc(NC(=O)/C=C/c2ccccc2[N+](=O)[O-])c1,-13.3,"0.00411 µM [falling, partial curve, poor fit]","8.2 µM [falling, partial curve]"
O=S(=O)(c1ccc(N2CCOCC2)nc1)N(Cc1ccccn1)Cc1ccccn1,–,–,"3.66 µM [rising, single point]"
Cn1c(NC(=O)c2ccccc2C(F)(F)F)cc(=O)n(C)c1=O,–,"6.51 µM [falling, single point]",–

# Fetched by structure from the entries so far, two records:
Structure (SMILES),cell number change [%],AC50 [1],AC50 [2]
O=C(Nc1ccc(S(=O)(=O)N2CCc3ccccc32)cc1)c1ccco1,-8.46,–,–
COc1cc(OC)c(-n2cc(-c3ccc(OC)c(OC)c3)[nH]c2=S)cc1Cl,12.6,–,"0.326 µM [falling, full curve, poor fit]"

# Remaining list, next part

Structure (SMILES),cell number change [%],AC50 [1],AC50 [2]
Cc1cccc(NC(=O)c2nc[nH]c2C(=O)N2CCc3ccccc3C2)c1,3.04,–,–
O=C(O)c1csc(Br)c1Br,–,–,"0.0058 µM [rising, full curve, poor fit]"
CCOC(=O)c1c(NC(=O)CC)sc(C(=O)NC2CCCC2)c1C,-5.04,–,"5.8 µM [falling, full curve, poor fit]"
CCCCC1=CC2=CC(=O)C(C)(OC(=O)CC)C(=O)C2=CN1CCN1CCOCC1 (configuration not stated),31.7,"1.46 µM [rising, full curve, poor fit]","0.13 µM [rising, full curve, poor fit]"
CCCCNC(=O)c1ccc(NC(C)=O)c(Cl)c1,8.68,"0.112 µM [falling, full curve, poor fit]",–
COc1ccccc1NC(=O)CSc1nnc(C2CCCCC2)n1N,-5.67,–,–
Cc1ccc(C)c(N2CCN(c3ccncc3N)CC2)c1,-50,"23.1 µM [falling, single point]","29.1 µM [falling, single point]"
O=C(COc1ncnc2sccc12)Nc1cccc(S(=O)(=O)N2CCOCC2)c1,9,"3.26 µM [falling, single point]",–
COc1ccccc1NC=C1C(=O)OC(C)(C)OC1=O,-9.25,–,"4.11 µM [rising, single point]"
O=C1NC(=S)S/C1=C\c1coc2ccccc2c1=O,32.3,"0.517 µM [rising, full curve]",–
CCOC(=O)/C(=C/C=C1\Sc2cc(C)c(C)cc2N1CC)C(C)=O,-96.9,"20.6 µM [falling, partial curve]","2.59 µM [falling, full curve]"
CC(=O)NC(Cc1ccc(C)cc1)C(=O)NC1CCN(c2ncccc2[N+](=O)[O-])CC1 (configuration not stated),8.35,–,"20.6 µM [rising, partial curve, poor fit]"
COC(=O)c1cc(=O)n(Cc2ccc3c(c2)OCO3)c(=Nc2ccccc2)s1,10.9,"0.0058 µM [rising, full curve, poor fit]",–
CCOc1ccc(C(C)=O)cc1COC(=O)CCc1cc(OC)c(OC)c(OC)c1,9.24,–,"6.51 µM [falling, single point]"
CC(=O)c1ccc(Nc2ncnc3c2oc2ccccc23)cc1,-2.65,–,"0.291 µM [rising, full curve]"
COc1ccc(-c2cn3cc(C)ccc3n2)cc1Br,32.1,"7.31 µM [rising, partial curve, poor fit]","8.2 µM [rising, partial curve]"
C[C@@]12C(=O)N(c3ccc(C(F)(F)F)cc3)C(=O)N1[C@@H]1c3ccccc3OC[C@@H]1[C@H]2c1ccccc1,51.1,"25.9 µM [rising, partial curve, poor fit]","29.1 µM [rising, single point]"
CCCNc1c(NS(=O)(=O)c2ccc(OC)c(OC)c2)c(=O)oc2ccccc12,-28.9,"2.91 µM [falling, single point]","6.51 µM [falling, partial curve]"
CC(=O)N1CCCc2cc(S(=O)(=O)N3CCCC(C(=O)NCc4ccc(C)cc4)C3)ccc21 (configuration not stated),15.6,–,"0.00517 µM [falling, full curve, poor fit]"

# — PubChem BioAssay AID2685 (National Center for Advancing Translational Sciences (NCATS), 2010)
